Measurements taken from patent US20250074896A1, “ARYLTETRAHYDROPYRIDAZINE DERIVATIVE OR SALT THEREOF AND INSECTICIDAL AGENT CONTAINING THE COMPOUND AND METHOD FOR USING SAME” (NIHON NOHYAKU CO., LTD., priority 2021, published 2025).
Some entries share one result that the patent states for a list of compounds.

Tests used:
Format in all cases: in vivo
[1] = tested on: Western Flower Thrips (Frankliniella occidentalis); assay: Insecticidal test on western flower thrips (kidney bean leaf pieces, hatched larvae); conditions: 4 days after the treatment
[2] = tested on: Diamondback moth (Plutella xylostella); assay: Insecticidal test on diamondback moth (dip treatment of Chinese cabbage seedlings with laid eggs); conditions: dip about 30 seconds, 6 days after treatment, 25° C.
[3] = tested on: Small Brown Planthopper (Laodelphax striatellus); assay: Insecticidal test on small brown planthopper (dipped rice seedlings, 3rd-instar larvae); conditions: rice seedlings dipped 30 seconds, 8 days after inoculation

COc1ccc(NC(=O)C2=C(O)CN(c3ccc(C#N)c(C)c3)NC2=O)nc1 [1-37]
A (the mortality rate is 100%): insecticidal efficacy (corrected mortality rate) against western flower thrips ([1]; 500 ppm) | insecticidal efficacy (corrected mortality rate) against diamondback moth ([2]; 500 ppm) | insecticidal efficacy (corrected mortality rate) against small brown planthopper ([3]; 500 ppm)

Cc1cc(NC(=O)C2=C(O)CN(c3cnc(C#N)c(C)c3)NC2=O)ccc1F [1-92]
A (the mortality rate is 100%): insecticidal efficacy (corrected mortality rate) against western flower thrips ([1]; 50 ppm) | insecticidal efficacy (corrected mortality rate) against western flower thrips ([1]; 500 ppm) | insecticidal efficacy (corrected mortality rate) against diamondback moth ([2]; 50 ppm) | insecticidal efficacy (corrected mortality rate) against diamondback moth ([2]; 500 ppm) | insecticidal efficacy (corrected mortality rate) against small brown planthopper ([3]; 50 ppm) | insecticidal efficacy (corrected mortality rate) against small brown planthopper ([3]; 500 ppm)

CC(C)(C)OC(=O)N1C(=O)C(C(=S)Nc2ccc(Cl)cc2)=C(O)CN1c1ccc(C(F)(F)F)nc1 [4-32]
A (the mortality rate is 100%): insecticidal efficacy (corrected mortality rate) against western flower thrips ([1]; 500 ppm) | insecticidal efficacy (corrected mortality rate) against diamondback moth ([2]; 500 ppm) | insecticidal efficacy (corrected mortality rate) against small brown planthopper ([3]; 500 ppm)

COCCOC(=O)N1C(=O)C(C(=O)Nc2ccc(F)cc2)=C(SC)CN1c1ccc(C(F)(F)F)nc1 [5-12]
A (the mortality rate is 100%): insecticidal efficacy (corrected mortality rate) against western flower thrips ([1]; 50 ppm) | insecticidal efficacy (corrected mortality rate) against western flower thrips ([1]; 500 ppm) | insecticidal efficacy (corrected mortality rate) against diamondback moth ([2]; 500 ppm) | insecticidal efficacy (corrected mortality rate) against small brown planthopper ([3]; 50 ppm) | insecticidal efficacy (corrected mortality rate) against small brown planthopper ([3]; 500 ppm)

CCOC(=O)N1C(=O)C(C(=O)Nc2cccc(C)n2)=C(O)CN1c1ccc(C#N)cc1 [3-646]
A (the mortality rate is 100%): insecticidal efficacy (corrected mortality rate) against western flower thrips ([1]; 50 ppm) | insecticidal efficacy (corrected mortality rate) against western flower thrips ([1]; 500 ppm) | insecticidal efficacy (corrected mortality rate) against diamondback moth ([2]; 50 ppm) | insecticidal efficacy (corrected mortality rate) against diamondback moth ([2]; 500 ppm) | insecticidal efficacy (corrected mortality rate) against small brown planthopper ([3]; 50 ppm) | insecticidal efficacy (corrected mortality rate) against small brown planthopper ([3]; 500 ppm)

CCC(C)OC(=O)N1C(=O)C(C(=O)Nc2ccc(F)cc2)=C(O)CN1c1ccc(C#N)nc1 (centres unmarked) [3-291]
A (the mortality rate is 100%): insecticidal efficacy (corrected mortality rate) against western flower thrips ([1]; 50 ppm) | insecticidal efficacy (corrected mortality rate) against western flower thrips ([1]; 500 ppm) | insecticidal efficacy (corrected mortality rate) against diamondback moth ([2]; 50 ppm) | insecticidal efficacy (corrected mortality rate) against diamondback moth ([2]; 500 ppm) | insecticidal efficacy (corrected mortality rate) against small brown planthopper ([3]; 50 ppm) | insecticidal efficacy (corrected mortality rate) against small brown planthopper ([3]; 500 ppm)

COC(=O)N1C(=O)C(C(=O)Nc2ccc(F)c(F)c2)=C(O)CN1c1ccc(C#N)c(F)c1 [3-389]
A (the mortality rate is 100%): insecticidal efficacy (corrected mortality rate) against western flower thrips ([1]; 50 ppm) | insecticidal efficacy (corrected mortality rate) against western flower thrips ([1]; 500 ppm) | insecticidal efficacy (corrected mortality rate) against diamondback moth ([2]; 50 ppm) | insecticidal efficacy (corrected mortality rate) against diamondback moth ([2]; 500 ppm) | insecticidal efficacy (corrected mortality rate) against small brown planthopper ([3]; 50 ppm) | insecticidal efficacy (corrected mortality rate) against small brown planthopper ([3]; 500 ppm)

O=C(Nc1ccc(F)cc1)C1=C(O)CN(c2ccc(C(F)(F)F)nc2)N(C(=S)N2CCCC2)C1=O [3-372]
A (the mortality rate is 100%): insecticidal efficacy (corrected mortality rate) against western flower thrips ([1]; 50 ppm) | insecticidal efficacy (corrected mortality rate) against western flower thrips ([1]; 500 ppm) | insecticidal efficacy (corrected mortality rate) against diamondback moth ([2]; 50 ppm) | insecticidal efficacy (corrected mortality rate) against diamondback moth ([2]; 500 ppm) | insecticidal efficacy (corrected mortality rate) against small brown planthopper ([3]; 50 ppm) | insecticidal efficacy (corrected mortality rate) against small brown planthopper ([3]; 500 ppm)

CC(C)(C)OC(=O)N1C(=O)C(C(=S)Nc2ccc([N+](=O)[O-])cc2)=C(O)CN1c1ccc(C(F)(F)F)nc1 [4-36]
A (the mortality rate is 100%): insecticidal efficacy (corrected mortality rate) against western flower thrips ([1]; 500 ppm) | insecticidal efficacy (corrected mortality rate) against diamondback moth ([2]; 500 ppm) | insecticidal efficacy (corrected mortality rate) against small brown planthopper ([3]; 500 ppm)

N#Cc1ncc(N2CC(O)=C(C(=O)Nc3ccc(F)cc3F)C(=O)N2)cc1Cl [1-197]
A (the mortality rate is 100%): insecticidal efficacy (corrected mortality rate) against western flower thrips ([1]; 50 ppm) | insecticidal efficacy (corrected mortality rate) against western flower thrips ([1]; 500 ppm) | insecticidal efficacy (corrected mortality rate) against diamondback moth ([2]; 50 ppm) | insecticidal efficacy (corrected mortality rate) against diamondback moth ([2]; 500 ppm) | insecticidal efficacy (corrected mortality rate) against small brown planthopper ([3]; 50 ppm) | insecticidal efficacy (corrected mortality rate) against small brown planthopper ([3]; 500 ppm)

COC(=O)N1C(=O)C(C(=O)Nc2cc(F)cc(F)c2)=C(O)CN1c1cnc(C#N)c(C)c1 [3-537]
A (the mortality rate is 100%): insecticidal efficacy (corrected mortality rate) against western flower thrips ([1]; 50 ppm) | insecticidal efficacy (corrected mortality rate) against western flower thrips ([1]; 500 ppm) | insecticidal efficacy (corrected mortality rate) against diamondback moth ([2]; 50 ppm) | insecticidal efficacy (corrected mortality rate) against diamondback moth ([2]; 500 ppm) | insecticidal efficacy (corrected mortality rate) against small brown planthopper ([3]; 50 ppm) | insecticidal efficacy (corrected mortality rate) against small brown planthopper ([3]; 500 ppm)

N#Cc1ccc(N2CC(O)=C(C(=O)Nc3cccc(Br)n3)C(=O)N2)nc1 [1-387]
A (the mortality rate is 100%): insecticidal efficacy (corrected mortality rate) against western flower thrips ([1]; 50 ppm) | insecticidal efficacy (corrected mortality rate) against diamondback moth ([2]; 50 ppm) | insecticidal efficacy (corrected mortality rate) against diamondback moth ([2]; 500 ppm) | insecticidal efficacy (corrected mortality rate) against small brown planthopper ([3]; 50 ppm) | insecticidal efficacy (corrected mortality rate) against small brown planthopper ([3]; 500 ppm)

COC(=O)N1C(=O)C(C(=S)Nc2ccc(F)cc2)=C(O)CN1c1ccc(C#N)nc1 [4-5]
A (the mortality rate is 100%): insecticidal efficacy (corrected mortality rate) against western flower thrips ([1]; 50 ppm) | insecticidal efficacy (corrected mortality rate) against western flower thrips ([1]; 500 ppm) | insecticidal efficacy (corrected mortality rate) against diamondback moth ([2]; 50 ppm) | insecticidal efficacy (corrected mortality rate) against diamondback moth ([2]; 500 ppm) | insecticidal efficacy (corrected mortality rate) against small brown planthopper ([3]; 50 ppm) | insecticidal efficacy (corrected mortality rate) against small brown planthopper ([3]; 500 ppm)

O=C(Nc1ccc(F)nc1)C1=C(O)CN(c2ccc(Cl)cc2)NC1=O [1-9]
A (the mortality rate is 100%): insecticidal efficacy (corrected mortality rate) against western flower thrips ([1]; 50 ppm) | insecticidal efficacy (corrected mortality rate) against western flower thrips ([1]; 500 ppm) | insecticidal efficacy (corrected mortality rate) against diamondback moth ([2]; 50 ppm) | insecticidal efficacy (corrected mortality rate) against diamondback moth ([2]; 500 ppm) | insecticidal efficacy (corrected mortality rate) against small brown planthopper ([3]; 50 ppm) | insecticidal efficacy (corrected mortality rate) against small brown planthopper ([3]; 500 ppm)

N#Cc1ccc(N2CC(O)=C(C(=O)Nc3cccc(C#N)c3)C(=O)N2)cc1 [1-238]
A (the mortality rate is 100%): insecticidal efficacy (corrected mortality rate) against western flower thrips ([1]; 50 ppm) | insecticidal efficacy (corrected mortality rate) against western flower thrips ([1]; 500 ppm) | insecticidal efficacy (corrected mortality rate) against diamondback moth ([2]; 500 ppm) | insecticidal efficacy (corrected mortality rate) against small brown planthopper ([3]; 50 ppm) | insecticidal efficacy (corrected mortality rate) against small brown planthopper ([3]; 500 ppm)

COC(=O)N1C(=O)C(C(=O)Nc2ccc(F)cc2)=C(O)CN1c1ccc(Br)cn1 [3-237]
A (the mortality rate is 100%): insecticidal efficacy (corrected mortality rate) against western flower thrips ([1]; 50 ppm) | insecticidal efficacy (corrected mortality rate) against western flower thrips ([1]; 500 ppm) | insecticidal efficacy (corrected mortality rate) against diamondback moth ([2]; 50 ppm) | insecticidal efficacy (corrected mortality rate) against diamondback moth ([2]; 500 ppm) | insecticidal efficacy (corrected mortality rate) against small brown planthopper ([3]; 50 ppm) | insecticidal efficacy (corrected mortality rate) against small brown planthopper ([3]; 500 ppm)

Cc1cc(NC(=O)C2=C(O)CN(c3cnc(C#N)c(Cl)c3)NC2=O)no1 [1-181]
A (the mortality rate is 100%): insecticidal efficacy (corrected mortality rate) against western flower thrips ([1]; 50 ppm) | insecticidal efficacy (corrected mortality rate) against western flower thrips ([1]; 500 ppm) | insecticidal efficacy (corrected mortality rate) against diamondback moth ([2]; 500 ppm) | insecticidal efficacy (corrected mortality rate) against small brown planthopper ([3]; 500 ppm)

N#Cc1ccc(N2CC(O)=C(C(=O)Nc3ccccc3F)C(=O)N2)cc1 [1-232]
A (the mortality rate is 100%): insecticidal efficacy (corrected mortality rate) against western flower thrips ([1]; 50 ppm) | insecticidal efficacy (corrected mortality rate) against western flower thrips ([1]; 500 ppm) | insecticidal efficacy (corrected mortality rate) against diamondback moth ([2]; 50 ppm) | insecticidal efficacy (corrected mortality rate) against diamondback moth ([2]; 500 ppm) | insecticidal efficacy (corrected mortality rate) against small brown planthopper ([3]; 50 ppm) | insecticidal efficacy (corrected mortality rate) against small brown planthopper ([3]; 500 ppm)

Cn1cc(NC(=O)C2=C(O)CN(c3ccc(Br)nc3)NC2=O)cn1 [1-272]
A (the mortality rate is 100%): insecticidal efficacy (corrected mortality rate) against western flower thrips ([1]; 500 ppm) | insecticidal efficacy (corrected mortality rate) against diamondback moth ([2]; 500 ppm) | insecticidal efficacy (corrected mortality rate) against small brown planthopper ([3]; 50 ppm) | insecticidal efficacy (corrected mortality rate) against small brown planthopper ([3]; 500 ppm)
